Here are results for 5 molecules from patent US20160200847A1, “CLICKABLE POLYMERS AND GELS FOR MICROARRAY AND OTHER APPLICATIONS” (priority 2014, published 2016).

Some entries of the source have several records that differ or are many. This list holds those alone. The source may hold further records. Values given together differ, and nothing given here explains why; they may come from other doses, times, organisms or constructs than stated.

The experiment concerns the target Concanavalin A (ConA) (Canavalia ensiformis, UniProt P02866). The following applies: read-out: KD, surf.

Take `[N-]=[N+]=NCCOC1CC(C(=O)NCCCN2CCCC2=O)C(C(=O)NCCCN2CCCC2=O)CC1O[C@H]1O[C@H](CO)[C@@H](O)[C@H](O)[C@@H]1O` (some centres unmarked): the Kd was 0.88 nM and 1.77 nM.
Then `[N-]=[N+]=NCCOC1CC(C(=O)N2CCOCC2)C(C(=O)N2CCOCC2)CC1O[C@H]1O[C@H](CO)[C@@H](O)[C@H](O)[C@@H]1O` (some centres unmarked), with 0.34 nM and 0.79 nM.
To `CN(Cc1ccccc1)C(=O)C1CC(OCCN=[N+]=[N-])C(O[C@H]2O[C@H](CO)[C@@H](O)[C@H](O)[C@@H]2O)CC1C(=O)N(C)Cc1ccccc1` (some centres unmarked) belongs 0.34 nM and 0.85 nM; to `[N-]=[N+]=NCCOC1CC(C(=O)NC2CCCC2)C(C(=O)NC2CCCC2)CC1O[C@H]1O[C@H](CO)[C@@H](O)[C@H](O)[C@@H]1O` (some centres unmarked), 0.4 nM and 0.98 nM; to `[N-]=[N+]=NCCOC1CC(C(=O)NC2CC2)C(C(=O)NC2CC2)CC1O[C@H]1O[C@H](CO)[C@@H](O)[C@H](O)[C@@H]1O` (some centres unmarked), 0.67 nM and 1.71 nM.
